# Values of other authors, collected in US20180085452A1, “MATRIX-EMBEDDED TOLERANCE-PROMOTING ADJUVANTS FOR SUBCUTANEOUS IMMUNOTHERAPY” (Tolerogenics S.a.r.l,, priority 2016, published 2018).
# For some assays here: For at least one compound, name, drawing or mass did not settle the structure. Some results were stated once for a whole list of compounds, not compound by compound.
# Tests used:
# [1] = short plasma half-life group; cited from earlier work
# asthma = details: after six months of treatment; cited from earlier work
Compound,plasma half-life [1],children who experienced asthma exacerbation (asthma) [%]
C[C@]12CCC(=O)C=C1CC[C@@H]1[C@@H]2[C@@H](O)C[C@@]2(C)[C@H]1CC[C@]2(O)C(=O)CO [hydrocortisone],0.5 h and 2 h,–
CCCC1O[C@@H]2C[C@H]3[C@@H]4CCC5=CC(=O)C=C[C@]5(C)[C@H]4[C@@H](O)C[C@]3(C)[C@]2(C(=O)CO)O1 (some centres unmarked) [budesonide],–,46
